These are yes or no findings as the source states them, for the method shown. Binding seen in cells or lysates may run through a third protein. Some binding calls cover weakened binding; strength is not graded here.
Key:
[1] = biological target: CFTR (mouse (endogenous in mICcl2)) (UniProt P26361); assay: co-IP
[2] = biological target: CFTR (mouse (endogenous in mICcl2)) (UniProt P26361); assay: proximity ligation

The chains behind the UniProt entries cited, without tags or fusion partners.
UniProt P26361: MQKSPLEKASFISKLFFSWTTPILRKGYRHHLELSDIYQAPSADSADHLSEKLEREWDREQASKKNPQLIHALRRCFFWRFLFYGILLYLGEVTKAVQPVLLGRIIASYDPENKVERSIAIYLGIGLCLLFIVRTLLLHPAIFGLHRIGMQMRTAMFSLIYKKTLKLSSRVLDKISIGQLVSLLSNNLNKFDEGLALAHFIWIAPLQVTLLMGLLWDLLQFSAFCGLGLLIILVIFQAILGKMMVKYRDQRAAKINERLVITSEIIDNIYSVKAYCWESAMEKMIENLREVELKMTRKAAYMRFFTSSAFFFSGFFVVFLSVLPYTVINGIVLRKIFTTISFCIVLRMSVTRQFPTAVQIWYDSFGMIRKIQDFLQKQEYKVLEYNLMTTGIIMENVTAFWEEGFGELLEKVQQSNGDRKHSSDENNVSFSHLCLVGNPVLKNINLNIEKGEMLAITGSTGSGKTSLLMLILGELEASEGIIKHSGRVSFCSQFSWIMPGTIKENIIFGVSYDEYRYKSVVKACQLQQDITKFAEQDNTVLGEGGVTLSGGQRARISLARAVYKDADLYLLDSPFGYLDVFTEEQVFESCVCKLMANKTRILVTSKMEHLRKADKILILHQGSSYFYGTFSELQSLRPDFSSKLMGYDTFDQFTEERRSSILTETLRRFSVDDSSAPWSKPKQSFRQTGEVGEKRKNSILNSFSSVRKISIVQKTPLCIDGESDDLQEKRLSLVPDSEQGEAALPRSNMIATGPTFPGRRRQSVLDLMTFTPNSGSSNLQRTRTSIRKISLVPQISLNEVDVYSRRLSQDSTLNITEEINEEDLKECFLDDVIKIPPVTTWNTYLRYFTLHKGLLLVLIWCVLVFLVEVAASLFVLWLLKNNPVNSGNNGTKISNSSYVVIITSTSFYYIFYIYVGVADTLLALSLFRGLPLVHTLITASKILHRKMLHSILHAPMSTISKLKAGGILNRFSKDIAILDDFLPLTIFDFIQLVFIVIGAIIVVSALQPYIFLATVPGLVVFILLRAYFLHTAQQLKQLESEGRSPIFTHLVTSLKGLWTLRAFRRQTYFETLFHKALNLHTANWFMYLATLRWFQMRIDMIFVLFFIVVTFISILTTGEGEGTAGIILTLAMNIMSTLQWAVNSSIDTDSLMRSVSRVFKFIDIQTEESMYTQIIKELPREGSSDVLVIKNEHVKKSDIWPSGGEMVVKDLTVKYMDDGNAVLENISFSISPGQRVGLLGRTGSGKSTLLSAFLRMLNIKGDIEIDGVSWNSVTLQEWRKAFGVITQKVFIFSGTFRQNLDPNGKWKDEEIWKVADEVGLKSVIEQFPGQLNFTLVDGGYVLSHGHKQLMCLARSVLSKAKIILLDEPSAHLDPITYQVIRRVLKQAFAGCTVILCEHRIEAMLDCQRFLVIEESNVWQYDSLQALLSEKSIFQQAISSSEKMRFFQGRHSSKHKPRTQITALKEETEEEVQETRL
UniProt Q9JL06: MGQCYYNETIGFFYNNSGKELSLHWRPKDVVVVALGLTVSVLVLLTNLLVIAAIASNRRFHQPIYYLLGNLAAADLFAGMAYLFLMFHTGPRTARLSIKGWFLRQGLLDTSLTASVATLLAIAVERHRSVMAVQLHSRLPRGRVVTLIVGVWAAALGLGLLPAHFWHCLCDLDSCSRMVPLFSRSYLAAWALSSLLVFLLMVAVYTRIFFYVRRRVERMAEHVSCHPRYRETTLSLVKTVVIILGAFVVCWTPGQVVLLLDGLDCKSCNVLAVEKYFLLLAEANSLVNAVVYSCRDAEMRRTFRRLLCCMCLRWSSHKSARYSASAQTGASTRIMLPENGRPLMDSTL
UniProt Q9JHL1: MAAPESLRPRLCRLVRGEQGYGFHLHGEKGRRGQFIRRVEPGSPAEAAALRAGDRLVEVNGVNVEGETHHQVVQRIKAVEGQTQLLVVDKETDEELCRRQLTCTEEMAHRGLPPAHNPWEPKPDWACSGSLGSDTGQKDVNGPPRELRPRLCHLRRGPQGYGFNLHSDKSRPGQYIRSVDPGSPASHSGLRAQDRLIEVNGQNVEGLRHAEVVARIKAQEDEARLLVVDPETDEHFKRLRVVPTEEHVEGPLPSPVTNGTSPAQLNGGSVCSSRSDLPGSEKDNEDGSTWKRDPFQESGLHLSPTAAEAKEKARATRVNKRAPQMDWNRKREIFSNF

Substance | binding [1] | binding [2]
LPA2 (from UniProt Q9JL06 1-348) (receptor) | binds | binds
NHERF2 (from UniProt Q9JHL1 1-337) | binds | binds

Source: paper doi:10.1101/186023
